Each structure is given as a SMILES string. Values joined by “and” are separate entries in the source; they are usually repeats but may differ in a detail not shown here. Equal values may be shown once. Where a name gives a salt, the structure may show the parent alone. ± gives the standard deviation of the averaged measurements. The list shows a part of the results. Plates or batches differ in their baseline, so values are only roughly comparable.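 Culture-activated primary human stellate myofibroblasts, where regained lipid droplets signal inactivation. Value: share of Hoechst-counted cells above a per-plate Bodipy cutoff, in duplicate wells, with DMSO negative and nortriptyline positive controls on each plate. Hits: a control-normalized score above the plate's top-tenth-percentile nortriptyline wells, or one of a plate's three best wells. Final well concentrations are not given.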

The subject of this test is primary human hepatic stellate cells (donor 1). The test is described as follows: percent Bodipy-positive cells; higher = more lipid droplet accumulation. The conditions noted are these: 48 h.
[1] abbreviates: library stock concentration: 3.33 mM.
[2] abbreviates: library stock concentration: 1 mM.
[3] abbreviates: library stock concentration: 10 mM.
Where [4] appears, read: library stock concentration: 4.9 mM.
Where [5] appears, read: library stock concentration: 80 uM.
Setting [6] is: library stock concentration: 400 uM.
[7] abbreviates: library stock concentration: 2 mM.

In the case of `CCCCCCCCCCCC1=C(O)C(=O)C=C(O)C1=O` [Embelin], the “percent Bodipy-positive cells” value under setting [1] came out at 12.7 ± 3.2%.

With `CCCCC[C@H](O)/C=C/[C@@H]1[C@@H](C/C=C/CCCC(=O)O)[C@@H](O)C[C@H]1O` [5-trans Prostaglandin F2.alpha. (tromethamine salt)], under setting [2], the “percent Bodipy-positive cells” value is 15.2 ± 3.9%.

For the compound `CCCCC[C@H](O)/C=C/[C@@H]1[C@@H](C/C=C/CCCC(=O)O)[C@@H](O)C[C@H]1O` [5-trans Prostaglandin F2.alpha.], the “percent Bodipy-positive cells” value under setting [2] came out at 7.5 ± 0.97%.

For `COc1c2ccoc2cc2oc(=O)ccc12` [Bergapten], the “percent Bodipy-positive cells” value was 13.1 ± 4.4% under setting [1]; 29.5% and 38.3% under setting [3].

For `CCCCCCCC/C=C\CCCCCCCC(=O)OC[C@H](CO)OC(=O)CCCCCCC/C=C\CCCCCCCC` [1,2-Dioleoyl-sn-glycerol], the “percent Bodipy-positive cells” value under setting [2] amounted to 11.4 ± 9%.

Consider `O=C1CCc2ccc(OCCCCN3CCN(c4cccc(Cl)c4Cl)CC3)cc2N1` [Aripiprazole], for which the “percent Bodipy-positive cells” value reads like this: under setting [1], 42.7 ± 13%; (library stock concentration: 4.5 mM) 29% and 51.3%; under setting [3], 79.3 ± 2.2%.

As to `CCCCCCCCCCCCCCCC(=O)C(F)(F)F`, under setting [3], the “percent Bodipy-positive cells” value was 4.87 ± 1.2%.

With `CCCCCCCCCCCCCCCC(=O)C(F)(F)F` [Palmityl Trifluoromethyl Ketone], the “percent Bodipy-positive cells” value under setting [2] turned out to be 8.04 ± 2.4%.

In the case of `CN(C)CCOC(c1ccc(Cl)cc1)c1ccccn1` (centres undefined) [Carbinoxamine maleate salt], the “percent Bodipy-positive cells” value came to 23.7 ± 6%.

`CN(C)CCOC(c1ccc(Cl)cc1)c1ccccn1` (centres undefined) [Carbinoxamine Maleate]: the “percent Bodipy-positive cells” value under setting [3] was 72.5 ± 5.3%.

With `CN(C)CCOC(c1ccc(Cl)cc1)c1ccccn1` (centres undefined) [Carbinoxamine maleate], the “percent Bodipy-positive cells” value is 19.2 ± 6.4% under setting [4] and 28.5 ± 11% under setting [3].

`Cc1cc(NC(=O)c2cccc(NC(=O)C=CCN(C)C)c2)ccc1Nc1nccc(-c2cccnc2)n1`: the “percent Bodipy-positive cells” value by setting is: under setting [1], 78.5 ± 5.1%; under setting [3], 100%.

For the compound `Nc1nc2c(ccc3ccccc32)s1`, the “percent Bodipy-positive cells” value under setting [3] was 5.98 ± 2.6%.

As to `Clc1ccc2c(c1)C(N1CCNCC1)=Nc1ccccc1O2` [Amoxapine], for the setting “library stock concentration: 6.4 mM”, the “percent Bodipy-positive cells” value was found to be 66.5 ± 7.3%.

Take `CCCCCCCCCCCCCC(=O)O` [Myristic Acid]: the “percent Bodipy-positive cells” value under setting [2] was 13.6 ± 0.67%.

Regarding `NC(=O)NC1NC(=O)NC1=O` (centres undefined) [Allantoin], the “percent Bodipy-positive cells” value worked out at 59.9 ± 21%. For the same compound, the “percent Bodipy-positive cells” value under setting [3] was determined as 26.2 ± 10%. Further, for the setting “library stock concentration: 12.6 mM”, the “percent Bodipy-positive cells” value stood at 12.7 ± 2.2%.

Consider `COc1ccc(NC(=O)c2ccc(-c3ccc(-c4noc(C)n4)cc3C)cc2)cc1N1CCN(C)CC1`, for which the “percent Bodipy-positive cells” value under setting [3] is 99.5% and 90.5%.

For `O=C(Nc1ccc(-c2ccnc(Nc3ccc(N4CCOCC4)cc3)n2)cc1)[C@@H]1CCCN1`, the “percent Bodipy-positive cells” value under setting [3] came to 71.7 ± 4.6%.

Take `Cc1cnc(Nc2ccc(F)cc2Cl)nc1-c1c[nH]c(C(=O)N[C@H](CO)c2cccc(Cl)c2)c1`: the “percent Bodipy-positive cells” value stood at 11.516 ± 0.011% under setting [5], 16.8 ± 12% under setting [6], 9.48 ± 4.2% under setting [7] and 23.7 ± 12% under setting [3].

For the compound `CN(C)[C@@H]1C(O)=C(C(=O)NCNCCCC[C@H](N)C(=O)O)C(=O)[C@@]2(O)C(O)=C3C(=O)c4c(O)cccc4[C@@](C)(O)[C@H]3C[C@@H]12` [Lymecycline], the “percent Bodipy-positive cells” value worked out at 5.2 ± 3.2%.

On to `CCCCNc1ccc(C(=O)OCCN(C)C)cc1` [Tetracaine hydrochloride], for which the “percent Bodipy-positive cells” value (library stock concentration: 6.6 mM) came out at 54.3 ± 9.9%; the “percent Bodipy-positive cells” value under setting [3] was 65.7% and 51.6%.

In the case of `CCCCNc1ccc(C(=O)OCCN(C)C)cc1` [Tetracaine HCl], the “percent Bodipy-positive cells” value came out at 15.8 ± 2% under setting [1] and 67.5 ± 21% under setting [3].

With `CCCCCOC(=O)Nc1nc(=O)n([C@@H]2O[C@H](C)[C@@H](O)[C@H]2O)cc1F`, the “percent Bodipy-positive cells” value under setting [3] is 48.3 ± 26%.

In the case of `CCCCCOC(=O)Nc1nc(=O)n([C@@H]2O[C@H](C)[C@@H](O)[C@H]2O)cc1F` [Capecitabine], the “percent Bodipy-positive cells” value was 9.84 ± 2.4% under setting [1] and 17.2 ± 0.0064% under setting [3].

Take `COc1ccc2cc(-c3nc(-c4ccc([S+](C)[O-])cc4)[nH]c3-c3ccncc3)ccc2c1` (centres undefined) [Tie2 kinase inhibitor]: the “percent Bodipy-positive cells” value is 27.7 ± 14% under setting [1] and 38.7 ± 18% under setting [3].

On to `Cl.Cl.NC1(c2ccc(-c3nc4ccn5c(=O)[nH]nc5c4cc3-c3ccccc3)cc2)CCC1`, for which the “percent Bodipy-positive cells” value is 89.6 ± 2.4% under setting [6] and 99.4 ± 0.26% under setting [7].

As to `CCN(CC)CCOc1ccc(C(=C(Cl)c2ccccc2)c2ccccc2)cc1` [Clomiphene citrate], the “percent Bodipy-positive cells” value runs as follows: under setting [4], 52.1 ± 3.9%; under setting [3], 16.1 ± 2.5%.

Take `CCN(CC)CCOc1ccc(C(=C(Cl)c2ccccc2)c2ccccc2)cc1` [Clomifene citrate]: the “percent Bodipy-positive cells” value under setting [1] worked out at 57.3 ± 1%.

On to `C[C@@H](CN1CCC(n2c(=O)[nH]c3cc(Cl)ccc32)CC1)NC(=O)c1ccc2ccccc2c1.Cl`, for which the “percent Bodipy-positive cells” value under setting [3] is 80.8 ± 12%.

As to `CN1CCC(=C2c3ccccc3CCc3sccc32)CC1` [Pizotyline malate], the “percent Bodipy-positive cells” value (library stock concentration: 4.7 mM) was 75.2 ± 4.1%.

For the compound `CN1CCC(=C2c3ccccc3CCc3sccc32)CC1` [Pizotifen Malate], under setting [1], the “percent Bodipy-positive cells” value was found to be 42.2 ± 1.4%.

`CN1CCC(=C2c3ccccc3CCc3sccc32)CC1` [Pizotifen malate]: the “percent Bodipy-positive cells” value came to 48.8 ± 2.4%.

For the compound `CCc1cc(-c2n[nH]c(C)c2-c2ccc3c(c2)OCCO3)c(O)cc1O`, the “percent Bodipy-positive cells” value under setting [3] is 24.3 ± 3.8%.

For the compound `COc1ncc(-c2ccc3nccc(-c4ccnnc4)c3c2)cc1NS(=O)(=O)c1ccc(F)cc1F`, the “percent Bodipy-positive cells” value under setting [5] came to 11.4 ± 3.1%; the “percent Bodipy-positive cells” value under setting [6] worked out at 18.2 ± 4.2%; the “percent Bodipy-positive cells” value under setting [7] was determined as 12.6 ± 8.2%; the “percent Bodipy-positive cells” value under setting [1] worked out at 13.9 ± 1.4%; the “percent Bodipy-positive cells” value under setting [3] is 57.7% and 57.3%.

`CN(C)C/C=C/C(=O)Nc1cccc(Nc2ncc3c(n2)N(C)c2ccccc2C(=O)N3C)c1`: the “percent Bodipy-positive cells” value runs as follows: under setting [5], 13.1 ± 2%; under setting [6], 25.1 ± 4.3%; under setting [7], 80.1 ± 3%; under setting [3], 100%.

Take `CNCCC[C@]12CC[C@H](c3ccccc31)c1ccccc12` [Maprotiline HCl]: the “percent Bodipy-positive cells” value (library stock concentration: 7.2 mM) came to 78.9 ± 2%.
